Measurements reported in patent US20090092595A1, “Suppression of sPLA2-integrin binding for treating an inflammatory condition” (REGENTS OF THE UNIVERSITY OF CALIFORNIA, priority 2007, published 2009).

B1: sPLA2-IIA R74E mutant (enzyme, human, UniProt P14555 21-144, looked up, not shown: small tags and cut ends)
chain: NLVNFHRMIKLTTGKEAALSYGFYGCHCGVGGRGSPKDATDRCCVTHDCCYKRLEKRGCGTKFLSYKFSNSGSEITCAKQDSCRSQLCECDKAAATCFARNKTTYNKKYQYYSNKHCRGSTPRC
B2: sPLA2-IIA R100E mutant (enzyme, human, UniProt P14555 21-144, looked up, not shown: small tags and cut ends)
chain: B1 chain with E74R, R100E
B3: sPLA2-IIA R42E mutant (enzyme, human, UniProt P14555 21-144, looked up, not shown: small tags and cut ends)
chain: B1 chain with R42E, E74R
B4: sPLA2-IIA R74E/R100E mutant (integrin-binding-defective) (enzyme, human, UniProt P14555 21-144, looked up)
chain: B1 chain with R100E
notes: mature; the printed positions appear to count on the mature protein; not shown: N-terminal vector-encoded residues with His tag from the PET28a/amp vector

Target: recombinant soluble integrin αvβ3
Test: ELISA-type assay, soluble αvβ3 on immobilized mutant sPLA2-IIA

binding, binds:
B1
B2
B3
B4

Substitutions are numbered along the chain they refer to. Names and notes keep the numbering of the source. Results are given in words; binding and its absence hold for the method and conditions named. A result given as binding can be weak or reduced; the word gives no strength.
